In the supplement of paper PMC10849652:
The list shows a part of the results.

Chains of the proteins cited; added tags and fusions are not shown. Lines headed by an entry give the natural chain unless they say otherwise; changes in a name come on top.
UniProt Q9BVK8: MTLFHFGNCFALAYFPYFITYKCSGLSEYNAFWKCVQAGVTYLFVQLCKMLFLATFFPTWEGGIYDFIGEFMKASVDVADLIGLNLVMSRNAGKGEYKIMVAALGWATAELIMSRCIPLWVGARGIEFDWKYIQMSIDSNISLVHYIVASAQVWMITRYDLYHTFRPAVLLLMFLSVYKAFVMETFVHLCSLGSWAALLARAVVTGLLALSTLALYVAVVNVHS
UniProt Q6PI78: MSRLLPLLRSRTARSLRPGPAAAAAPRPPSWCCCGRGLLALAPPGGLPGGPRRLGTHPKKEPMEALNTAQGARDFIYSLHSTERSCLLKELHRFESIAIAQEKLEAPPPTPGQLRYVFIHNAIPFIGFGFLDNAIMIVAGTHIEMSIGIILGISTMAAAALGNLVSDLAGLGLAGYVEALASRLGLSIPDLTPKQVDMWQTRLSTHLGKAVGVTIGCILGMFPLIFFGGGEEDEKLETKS
UniProt O15321, whole entry, looked up: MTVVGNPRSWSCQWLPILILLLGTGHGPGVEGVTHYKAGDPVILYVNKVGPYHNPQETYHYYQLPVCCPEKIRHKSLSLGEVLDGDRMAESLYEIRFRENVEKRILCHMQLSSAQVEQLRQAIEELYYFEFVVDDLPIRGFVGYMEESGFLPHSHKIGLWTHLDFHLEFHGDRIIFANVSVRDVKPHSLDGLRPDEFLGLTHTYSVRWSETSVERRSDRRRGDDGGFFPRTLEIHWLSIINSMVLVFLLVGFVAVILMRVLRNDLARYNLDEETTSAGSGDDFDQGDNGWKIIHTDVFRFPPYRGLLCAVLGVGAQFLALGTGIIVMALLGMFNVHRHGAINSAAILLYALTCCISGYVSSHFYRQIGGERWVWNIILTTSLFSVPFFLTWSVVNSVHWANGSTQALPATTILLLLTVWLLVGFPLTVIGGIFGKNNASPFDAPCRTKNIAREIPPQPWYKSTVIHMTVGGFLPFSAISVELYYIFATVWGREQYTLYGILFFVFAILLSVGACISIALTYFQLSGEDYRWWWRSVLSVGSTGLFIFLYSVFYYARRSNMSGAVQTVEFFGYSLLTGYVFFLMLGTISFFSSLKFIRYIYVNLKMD
UniProt Q6UW68: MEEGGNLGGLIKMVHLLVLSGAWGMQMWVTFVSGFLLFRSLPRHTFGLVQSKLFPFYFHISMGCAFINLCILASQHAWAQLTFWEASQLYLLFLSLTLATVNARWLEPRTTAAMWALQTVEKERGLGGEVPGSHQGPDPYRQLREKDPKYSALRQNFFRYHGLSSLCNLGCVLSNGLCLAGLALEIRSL
UniProt P28289: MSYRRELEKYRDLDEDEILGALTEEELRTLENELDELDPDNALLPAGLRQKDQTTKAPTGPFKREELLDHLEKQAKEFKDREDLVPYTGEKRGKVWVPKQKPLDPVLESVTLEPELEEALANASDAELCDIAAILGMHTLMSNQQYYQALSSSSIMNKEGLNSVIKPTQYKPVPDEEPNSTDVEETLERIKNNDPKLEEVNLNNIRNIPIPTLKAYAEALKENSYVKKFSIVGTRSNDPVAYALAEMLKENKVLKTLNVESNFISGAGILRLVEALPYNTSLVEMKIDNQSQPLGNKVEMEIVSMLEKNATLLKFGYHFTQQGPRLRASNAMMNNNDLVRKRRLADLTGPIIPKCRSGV
UniProt Q9BRN9: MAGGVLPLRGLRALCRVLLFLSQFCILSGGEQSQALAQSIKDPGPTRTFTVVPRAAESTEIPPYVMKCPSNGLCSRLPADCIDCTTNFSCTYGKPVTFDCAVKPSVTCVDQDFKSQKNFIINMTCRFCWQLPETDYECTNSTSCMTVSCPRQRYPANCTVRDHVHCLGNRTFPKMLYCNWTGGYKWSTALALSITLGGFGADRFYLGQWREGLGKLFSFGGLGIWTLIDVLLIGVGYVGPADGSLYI
UniProt Q9NWD8: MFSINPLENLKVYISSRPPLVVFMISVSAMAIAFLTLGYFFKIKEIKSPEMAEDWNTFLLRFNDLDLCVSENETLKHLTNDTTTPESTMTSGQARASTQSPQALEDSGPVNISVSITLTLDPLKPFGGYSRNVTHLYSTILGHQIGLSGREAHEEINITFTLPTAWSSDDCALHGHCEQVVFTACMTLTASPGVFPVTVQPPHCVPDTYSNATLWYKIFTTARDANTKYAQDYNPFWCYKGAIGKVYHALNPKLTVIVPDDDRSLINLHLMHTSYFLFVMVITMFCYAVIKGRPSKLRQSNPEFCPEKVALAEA
UniProt Q9Y320, whole entry, looked up: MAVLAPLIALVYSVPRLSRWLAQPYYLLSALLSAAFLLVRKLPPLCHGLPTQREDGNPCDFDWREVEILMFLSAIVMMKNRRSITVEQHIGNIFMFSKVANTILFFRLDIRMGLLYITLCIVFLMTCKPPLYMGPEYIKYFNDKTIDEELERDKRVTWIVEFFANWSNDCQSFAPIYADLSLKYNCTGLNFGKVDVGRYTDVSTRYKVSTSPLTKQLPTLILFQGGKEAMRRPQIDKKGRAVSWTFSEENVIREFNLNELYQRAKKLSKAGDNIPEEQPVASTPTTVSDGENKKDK
UniProt Q9BTV4: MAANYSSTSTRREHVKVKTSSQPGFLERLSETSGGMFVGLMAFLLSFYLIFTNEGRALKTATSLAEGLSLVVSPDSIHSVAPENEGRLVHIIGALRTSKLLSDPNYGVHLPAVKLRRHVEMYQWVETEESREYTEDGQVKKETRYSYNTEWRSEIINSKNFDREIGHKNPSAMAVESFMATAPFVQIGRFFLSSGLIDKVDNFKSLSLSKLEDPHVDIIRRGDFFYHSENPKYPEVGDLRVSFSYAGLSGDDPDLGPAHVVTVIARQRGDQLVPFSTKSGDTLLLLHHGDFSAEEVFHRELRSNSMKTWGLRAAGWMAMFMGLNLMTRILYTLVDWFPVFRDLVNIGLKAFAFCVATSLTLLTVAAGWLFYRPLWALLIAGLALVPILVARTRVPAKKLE
UniProt Q9Y3A6: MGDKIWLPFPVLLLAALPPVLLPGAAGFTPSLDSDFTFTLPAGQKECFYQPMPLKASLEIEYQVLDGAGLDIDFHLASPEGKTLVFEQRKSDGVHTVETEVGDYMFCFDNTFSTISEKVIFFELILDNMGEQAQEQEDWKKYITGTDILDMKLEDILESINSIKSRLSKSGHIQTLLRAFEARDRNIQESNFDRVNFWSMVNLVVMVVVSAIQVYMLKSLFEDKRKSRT
UniProt Q9NR96: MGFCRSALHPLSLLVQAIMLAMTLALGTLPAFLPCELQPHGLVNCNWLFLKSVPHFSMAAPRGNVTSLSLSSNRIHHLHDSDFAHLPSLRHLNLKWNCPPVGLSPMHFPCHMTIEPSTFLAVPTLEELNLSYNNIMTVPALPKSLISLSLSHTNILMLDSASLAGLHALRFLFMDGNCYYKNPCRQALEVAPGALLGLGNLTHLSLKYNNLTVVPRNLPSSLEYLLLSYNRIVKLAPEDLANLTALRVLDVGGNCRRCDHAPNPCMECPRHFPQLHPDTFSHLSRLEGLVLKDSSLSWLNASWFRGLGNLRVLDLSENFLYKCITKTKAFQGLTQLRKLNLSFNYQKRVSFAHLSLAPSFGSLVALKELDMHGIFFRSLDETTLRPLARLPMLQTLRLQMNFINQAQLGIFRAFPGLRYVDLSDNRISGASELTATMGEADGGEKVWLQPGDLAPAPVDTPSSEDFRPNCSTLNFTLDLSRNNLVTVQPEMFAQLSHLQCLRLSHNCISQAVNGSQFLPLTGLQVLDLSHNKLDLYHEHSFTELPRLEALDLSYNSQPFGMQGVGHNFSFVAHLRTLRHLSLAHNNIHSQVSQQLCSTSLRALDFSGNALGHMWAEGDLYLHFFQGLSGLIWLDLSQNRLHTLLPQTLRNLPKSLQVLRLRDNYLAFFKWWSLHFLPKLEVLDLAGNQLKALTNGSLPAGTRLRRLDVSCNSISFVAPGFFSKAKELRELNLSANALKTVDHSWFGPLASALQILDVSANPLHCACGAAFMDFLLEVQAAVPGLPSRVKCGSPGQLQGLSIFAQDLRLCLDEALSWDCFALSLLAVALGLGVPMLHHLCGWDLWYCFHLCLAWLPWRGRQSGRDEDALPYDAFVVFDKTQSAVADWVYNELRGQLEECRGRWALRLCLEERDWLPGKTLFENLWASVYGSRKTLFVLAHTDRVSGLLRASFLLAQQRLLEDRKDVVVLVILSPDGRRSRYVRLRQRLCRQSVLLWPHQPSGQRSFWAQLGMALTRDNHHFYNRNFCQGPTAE
UniProt P42167: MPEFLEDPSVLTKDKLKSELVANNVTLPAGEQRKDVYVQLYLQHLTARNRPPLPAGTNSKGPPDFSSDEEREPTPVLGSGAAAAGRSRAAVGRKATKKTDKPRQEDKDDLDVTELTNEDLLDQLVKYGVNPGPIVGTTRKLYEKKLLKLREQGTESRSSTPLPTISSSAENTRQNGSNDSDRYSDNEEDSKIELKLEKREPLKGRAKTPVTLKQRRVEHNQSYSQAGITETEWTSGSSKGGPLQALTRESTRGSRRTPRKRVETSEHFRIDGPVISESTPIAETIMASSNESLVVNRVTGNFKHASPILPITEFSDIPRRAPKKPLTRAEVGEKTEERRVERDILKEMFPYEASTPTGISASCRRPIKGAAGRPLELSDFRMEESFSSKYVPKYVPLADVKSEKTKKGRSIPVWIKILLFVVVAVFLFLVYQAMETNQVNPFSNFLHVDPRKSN
UniProt O00206, whole entry, looked up: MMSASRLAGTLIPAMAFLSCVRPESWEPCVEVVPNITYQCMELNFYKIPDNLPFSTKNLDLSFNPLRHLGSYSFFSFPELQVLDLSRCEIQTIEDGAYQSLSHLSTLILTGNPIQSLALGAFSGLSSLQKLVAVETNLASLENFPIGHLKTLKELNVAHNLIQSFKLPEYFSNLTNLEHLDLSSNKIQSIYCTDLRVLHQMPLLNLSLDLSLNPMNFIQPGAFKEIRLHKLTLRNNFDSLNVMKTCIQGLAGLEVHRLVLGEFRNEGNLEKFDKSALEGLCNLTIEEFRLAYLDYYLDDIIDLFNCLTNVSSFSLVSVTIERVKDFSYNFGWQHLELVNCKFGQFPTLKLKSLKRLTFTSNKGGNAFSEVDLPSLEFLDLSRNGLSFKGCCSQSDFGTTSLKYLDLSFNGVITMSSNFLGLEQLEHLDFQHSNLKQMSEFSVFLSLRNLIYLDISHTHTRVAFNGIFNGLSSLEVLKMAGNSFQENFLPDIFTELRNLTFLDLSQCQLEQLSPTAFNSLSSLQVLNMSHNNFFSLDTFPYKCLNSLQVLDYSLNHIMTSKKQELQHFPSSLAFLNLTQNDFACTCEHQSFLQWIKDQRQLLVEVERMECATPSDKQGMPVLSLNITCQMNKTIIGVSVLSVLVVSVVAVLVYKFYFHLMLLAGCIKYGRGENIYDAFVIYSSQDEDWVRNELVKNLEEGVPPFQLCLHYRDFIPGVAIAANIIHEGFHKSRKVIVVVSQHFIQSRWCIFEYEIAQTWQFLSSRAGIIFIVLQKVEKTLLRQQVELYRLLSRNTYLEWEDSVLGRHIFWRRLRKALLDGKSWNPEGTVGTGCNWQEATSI
UniProt O94876, whole entry, looked up: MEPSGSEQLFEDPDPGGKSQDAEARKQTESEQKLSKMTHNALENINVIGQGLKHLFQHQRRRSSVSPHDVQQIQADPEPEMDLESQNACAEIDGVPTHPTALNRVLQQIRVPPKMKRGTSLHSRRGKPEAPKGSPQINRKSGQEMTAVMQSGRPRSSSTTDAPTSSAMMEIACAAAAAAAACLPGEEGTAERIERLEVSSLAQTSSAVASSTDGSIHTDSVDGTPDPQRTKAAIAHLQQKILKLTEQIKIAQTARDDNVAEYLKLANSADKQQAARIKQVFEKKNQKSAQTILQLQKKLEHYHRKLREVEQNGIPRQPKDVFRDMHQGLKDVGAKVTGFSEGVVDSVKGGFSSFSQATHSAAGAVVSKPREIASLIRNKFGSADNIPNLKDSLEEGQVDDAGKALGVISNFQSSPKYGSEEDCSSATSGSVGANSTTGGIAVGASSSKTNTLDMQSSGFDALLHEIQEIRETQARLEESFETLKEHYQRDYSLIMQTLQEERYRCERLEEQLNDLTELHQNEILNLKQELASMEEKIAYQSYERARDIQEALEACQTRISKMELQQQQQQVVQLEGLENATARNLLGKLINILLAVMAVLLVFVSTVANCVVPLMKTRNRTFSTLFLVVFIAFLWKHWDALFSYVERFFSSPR
UniProt Q6ZT21: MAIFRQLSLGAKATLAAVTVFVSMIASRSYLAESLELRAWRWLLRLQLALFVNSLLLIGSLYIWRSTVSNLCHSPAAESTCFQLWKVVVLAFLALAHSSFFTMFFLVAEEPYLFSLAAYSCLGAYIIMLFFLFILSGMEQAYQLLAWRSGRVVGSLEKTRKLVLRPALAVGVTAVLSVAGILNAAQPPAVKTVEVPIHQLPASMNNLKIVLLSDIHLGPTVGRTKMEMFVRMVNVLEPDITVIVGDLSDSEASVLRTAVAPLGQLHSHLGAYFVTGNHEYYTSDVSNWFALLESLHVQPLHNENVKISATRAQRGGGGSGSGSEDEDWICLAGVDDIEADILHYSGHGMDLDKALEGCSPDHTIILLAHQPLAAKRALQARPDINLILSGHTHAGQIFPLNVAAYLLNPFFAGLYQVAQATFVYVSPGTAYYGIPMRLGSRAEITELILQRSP

Key:
Assay in all cases: log2 fold change, soluble protein after heating vs DMSO (PISA); higher = thermal stabilisation; K562 cells, 10 uM, 30 min; active = over 0.2 and 3.5 SD of the protein, either way, in both replicates (recomputed)
saracatinib = compound: CN1CCN(CCOc2cc(OC3CCOCC3)c3c(Nc4c(Cl)ccc5c4OCO5)ncnc3c2)CC1 [saracatinib]
Summary of the method: (§1)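 K562 cells at 2×10^6 cells/mL were exposed to 10 μM compound for 30 min, then aliquots were heated for 3 min across 48°C-58°C, pooled, and extracted in PBS containing 0.5% NP-40 at 4°C. The supernatant after 21,000xg for 90 min was taken as soluble protein and measured by TMTpro 16plex LC-MS/MS with channel sums equalised. Thermal stability is reported relative to control samples, with values from duplicates. Fold changes are given on a log2 scale.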

sotrastaurin = compound: CN1CCN(c2nc(C3=C(c4c[nH]c5ccccc45)C(=O)NC3=O)c3ccccc3n2)CC1 [sotrastaurin]
Summary of the method: as §1

alvocidib = compound: CN1CC[C@H](c2c(O)cc(O)c3c(=O)cc(-c4ccccc4Cl)oc23)[C@H](O)C1 [alvocidib]
Summary of the method: as §1

Tubastatin A = compound: CN1CCc2c(c3ccccc3n2Cc2ccc(C(=O)NO)cc2)C1 [Tubastatin A]
Summary of the method: as §1

[1] = compound: CNC(=O)C1=CC=CC=C1NC2=NC(=NC=C2Cl)NC3=C(C=C(C=C3)N4CCOCC4)OC
Summary of the method: as §1

defactinib = compound: CNC(=O)c1ccc(Nc2ncc(C(F)(F)F)c(NCc3nccnc3N(C)S(C)(=O)=O)n2)cc1 [defactinib]
Summary of the method: as §1

[2] = compound: CNc1nc(-c2ccc3c(N)n[nH]c3c2)cc(N2C[C@@H](C(=O)NC3CCCCC3)CC[C@H]2C)n1
Summary of the method: as §1

[3] = compound: COC(=O)[C@H](CCSC)NC(=O)C1=C(C=C(C=C1)NC[C@H](CS)N)C2=CC=CC=C2
Summary of the method: as §1

filanesib = compound: CON(C)C(=O)N1N=C(c2cc(F)ccc2F)S[C@@]1(CCCN)c1ccccc1 [filanesib]
Summary of the method: as §1

zotarolimus = compound: CO[C@H]1C[C@@H]2CC[C@@H](C)[C@@](O)(O2)C(=O)C(=O)N2CCCC[C@H]2C(=O)O[C@H]([C@H](C)C[C@@H]2CC[C@H](n3cnnn3)[C@H](OC)C2)CC(=O)[C@H](C)/C=C(\C)[C@@H](O)[C@@H](OC)C(=O)[C@H](C)C[C@H](C)/C=C/C=C/C=C/1C [zotarolimus]
Summary of the method: as §1

idasanutlin = compound: COc1cc(C(=O)O)ccc1NC(=O)[C@@H]1N[C@@H](CC(C)(C)C)[C@](C#N)(c2ccc(Cl)cc2F)[C@H]1c1cccc(Cl)c1F [idasanutlin]
Summary of the method: as §1

alisertib = compound: COc1cc(Nc2ncc3c(n2)-c2ccc(Cl)cc2C(c2c(F)cccc2OC)=NC3)ccc1C(=O)O [alisertib]
Summary of the method: as §1

[4] = compound: COc1cc2nc(-c3cc(F)ccc3O)nc(N[C@@H]3CNC[C@H]3C(C)(C)O)c2cc1OC
Summary of the method: as §1

gefitinib = compound: COc1cc2ncnc(Nc3ccc(F)c(Cl)c3)c2cc1OCCCN1CCOCC1 [gefitinib]
Summary of the method: as §1

[5] = compound: COc1cccc2cc(-c3nc([C@H]4CC[C@H](C(=O)O)CC4)n4ncnc(N)c34)[nH]c12
Summary of the method: as §1

lapatinib = compound: CS(=O)(=O)CCNCc1ccc(-c2ccc3ncnc(Nc4ccc(OCc5cccc(F)c5)c(Cl)c4)c3c2)o1 [lapatinib]
Summary of the method: as §1

rucaparib = compound: CNCc1ccc(-c2[nH]c3cc(F)cc4c3c2CCNC4=O)cc1 [rucaparib]
Summary of the method: as §1

encorafenib = compound: COC(=O)N[C@@H](C)CNc1nccc(-c2cn(C(C)C)nc2-c2cc(Cl)cc(NS(C)(=O)=O)c2F)n1 [encorafenib]
Summary of the method: as §1

[6] = compound: COC1=CC=C(C=C1)CN2C=CC3=C2C=C(C=C3)C(=O)NO
Summary of the method: as §1

pictilisib = compound: CS(=O)(=O)N1CCN(Cc2cc3nc(-c4cccc5[nH]ncc45)nc(N4CCOCC4)c3s2)CC1 [pictilisib]
Summary of the method: as §1

Measured: log2 fold change

TMEM147 (UniProt Q9BVK8)
inactive: saracatinib 0.132 | sotrastaurin 0.059 | alvocidib 0.023 | Tubastatin A 0.01 | [1] 0 | defactinib -0.125 | [2] -0.001 | [3] -0.021 | filanesib -0.081 | zotarolimus 0.222 | idasanutlin -0.187 | alisertib 0.143 | [4] 0.059 | gefitinib 0.096 | [5] -0.016 | lapatinib -0.112

TMEM263 (UniProt Q8WUH6)
inactive: saracatinib 0.027 | sotrastaurin -0.046 | Tubastatin A -0.049 | [1] -0.161 | defactinib 0.007 | rucaparib -0.031 | [2] -0.057 | encorafenib 0.015 | [3] -0.015 | [6] -0.096 | zotarolimus -0.038 | idasanutlin -0.09 | alisertib -0.043 | gefitinib -0.042 | [5] 0.065 | lapatinib -0.045 | pictilisib -0.208
active: filanesib -0.654 | [4] -0.789

TMEM65 (UniProt Q6PI78)
inactive: saracatinib 0.082 | sotrastaurin 0.135 | alvocidib 0.056 | Tubastatin A 0.042 | [1] 0.03 | defactinib 0.113 | rucaparib 0.216 | [2] 0.063 | encorafenib 0.072 | [3] -0.05 | [6] -0.083 | filanesib -0.246 | zotarolimus -0.043 | idasanutlin -0.012 | alisertib -0.142 | [4] -0.085 | gefitinib -0.01 | [5] -0.079 | lapatinib -0.015 | pictilisib 0.02

TMA16 (UniProt Q96EY4)
inactive: saracatinib -0.096 | sotrastaurin 0.016 | alvocidib 0.21 | Tubastatin A 0.102 | [1] 0.013 | defactinib 0.114 | rucaparib 0.178 | [2] 0.092 | encorafenib 0.144 | [3] 0.101 | [6] -0.156 | filanesib 0.185 | zotarolimus 0.044 | idasanutlin 0.186 | alisertib -0.024 | [4] -0.07 | gefitinib 0.045 | [5] -0.095 | lapatinib 0.087 | pictilisib -0.104

TM9SF1 (UniProt O15321)
inactive: saracatinib 0.018 | sotrastaurin 0.079 | alvocidib 0.029 | Tubastatin A 0.013 | [1] 0.029 | defactinib -0.139 | rucaparib 0.027 | [2] 0.001 | encorafenib 0.087 | [3] -0.028 | [6] -0.089 | filanesib 0.133 | zotarolimus 0.076 | idasanutlin -0.069 | alisertib -0.104 | [4] 0.231 | gefitinib 0.04 | [5] 0.125 | lapatinib 0.065 | pictilisib 0.174

TMEM205 (UniProt Q6UW68)
inactive: saracatinib 0.029 | sotrastaurin 0.145 | alvocidib -0.067 | Tubastatin A 0.086 | [1] 0.065 | defactinib 0.022 | rucaparib -0.017 | [2] -0.187 | encorafenib -0.03 | [3] 0.066 | [6] -0.008 | filanesib 0.251 | zotarolimus -0.002 | alisertib -0.027 | [4] 0.085 | gefitinib 0.04 | [5] 0.069 | lapatinib -0.111 | pictilisib -0.168

TMOD1 (UniProt P28289)
inactive: saracatinib -0.067 | sotrastaurin -0.112 | alvocidib 0.068 | Tubastatin A 0.066 | [1] -0.009 | defactinib -0.047 | rucaparib 0.093 | [2] 0.027 | encorafenib 0.15 | [3] 0.033 | [6] 0.003 | filanesib 0.028 | zotarolimus 0.041 | idasanutlin 0.117 | alisertib 0.002 | [4] -0.032 | gefitinib -0.007 | [5] -0.103 | lapatinib 0.083 | pictilisib -0.062

TM2D3 (UniProt Q9BRN9)
inactive: saracatinib -0.087 | sotrastaurin -0.08 | alvocidib 0.124 | Tubastatin A 0.021 | [1] 0.067 | defactinib -0.078 | rucaparib -0.02 | [2] 0.078 | encorafenib 0.041 | [3] -0.006 | [6] 0.024 | filanesib 0.034 | zotarolimus 0.009 | idasanutlin -0.021 | alisertib -0.005 | [4] -0.137 | gefitinib -0.019 | [5] 0.121 | lapatinib -0.063 | pictilisib 0.029

TMEM248 (UniProt Q9NWD8)
inactive: saracatinib -0.122 | sotrastaurin 0.008 | alvocidib 0.039 | Tubastatin A -0.058 | [1] -0.074 | defactinib 0.037 | rucaparib -0.126 | [2] -0.025 | encorafenib 0 | [3] 0.067 | [6] -0.026 | filanesib 0.023 | zotarolimus 0.025 | idasanutlin -0.092 | alisertib -0.015 | [4] 0.088 | gefitinib -0.023 | [5] 0.155 | lapatinib 0.043 | pictilisib 0.084

TMX2 (UniProt Q9Y320)
inactive: saracatinib -0.012 | sotrastaurin 0.026 | alvocidib -0.034 | Tubastatin A 0.029 | [1] 0.023 | defactinib -0.042 | rucaparib -0.025 | [2] 0.054 | encorafenib -0.005 | [3] 0.022 | [6] 0 | filanesib -0.131 | zotarolimus 0.025 | idasanutlin -0.049 | alisertib -0.043 | [4] -0.147 | gefitinib 0.018 | [5] 0.047 | lapatinib -0.07 | pictilisib 0.041

TMEM43 (UniProt Q9BTV4)
inactive: saracatinib 0 | sotrastaurin -0.043 | alvocidib 0.014 | Tubastatin A 0.005 | [1] -0.003 | defactinib 0.055 | rucaparib 0.035 | [2] -0.026 | encorafenib 0.059 | [3] 0.01 | [6] -0.072 | filanesib -0.028 | zotarolimus 0.031 | idasanutlin 0.025 | alisertib -0.053 | [4] -0.064 | gefitinib -0.007 | [5] -0.015 | lapatinib 0.049 | pictilisib 0.031

TMED5 (UniProt Q9Y3A6)
inactive: saracatinib -0.003 | sotrastaurin 0.029 | alvocidib -0.002 | Tubastatin A -0.024 | [1] -0.006 | defactinib 0.001 | rucaparib 0.046 | [2] -0.076 | encorafenib 0.031 | [3] 0.002 | [6] -0.031 | filanesib -0.037 | zotarolimus -0.038 | idasanutlin -0.067 | alisertib 0.037 | [4] 0.029 | gefitinib 0.006 | [5] -0.044 | lapatinib -0.018 | pictilisib 0.105

Two consecutive entries already listed, quoted:
TMX2 (UniProt Q9Y320)
inactive: saracatinib -0.012 | sotrastaurin 0.026 | alvocidib -0.034 | Tubastatin A 0.029 | [1] 0.023 | defactinib -0.042 | rucaparib -0.025 | [2] 0.054 | encorafenib -0.005 | [3] 0.022 | [6] 0 | filanesib -0.131 | zotarolimus 0.025 | idasanutlin -0.049 | alisertib -0.043 | [4] -0.147 | gefitinib 0.018 | [5] 0.047 | lapatinib -0.07 | pictilisib 0.041

TMEM43 (UniProt Q9BTV4)
inactive: saracatinib 0 | sotrastaurin -0.043 | alvocidib 0.014 | Tubastatin A 0.005 | [1] -0.003 | defactinib 0.055 | rucaparib 0.035 | [2] -0.026 | encorafenib 0.059 | [3] 0.01 | [6] -0.072 | filanesib -0.028 | zotarolimus 0.031 | idasanutlin 0.025 | alisertib -0.053 | [4] -0.064 | gefitinib -0.007 | [5] -0.015 | lapatinib 0.049 | pictilisib 0.031

Going on with the list:

TLR9 isoform 4 (UniProt Q9NR96)
inactive: saracatinib -0.001 | sotrastaurin -0.008 | alvocidib 0 | Tubastatin A -0.045 | [1] -0.046 | defactinib -0.028 | rucaparib 0.017 | [2] 0.407 | encorafenib -0.076 | [3] 0.03 | filanesib -0.1 | zotarolimus 0.123 | idasanutlin 0.017 | alisertib 0.045 | gefitinib -0.068 | [5] 0.007

TMPO isoform 2 (UniProt P42167)
inactive: saracatinib 0.035 | sotrastaurin 0.121 | alvocidib -0.008 | Tubastatin A -0.02 | [1] -0.023 | defactinib 0.061 | rucaparib -0.035 | [2] -0.029 | encorafenib 0.005 | [3] 0.079 | [6] -0.155 | filanesib -0.51 | zotarolimus -0.045 | idasanutlin 0.038 | alisertib 0 | [4] -0.001 | gefitinib 0.06 | [5] 0.005 | lapatinib -0.342 | pictilisib 0.148

TLR4 (UniProt O00206)
inactive: saracatinib -0.235 | sotrastaurin 0.083 | alvocidib 0.062 | Tubastatin A 0.113 | [1] -0.306 | defactinib 0.006 | rucaparib -0.114 | [2] -0.133 | encorafenib -0.072 | [3] 0.066 | filanesib -0.022 | zotarolimus -0.252 | [4] 0.266 | lapatinib -0.25 | pictilisib 0.263

TMCC1 (UniProt O94876)
inactive: saracatinib 0.193 | sotrastaurin -0.137 | alvocidib 0.021 | [2] -0.214 | filanesib -0.068 | zotarolimus 0.059 | idasanutlin 0.072 | alisertib -0.192 | [5] 0.031 | pictilisib 0.083

TMPPE (UniProt Q6ZT21)
inactive: saracatinib 0.093 | sotrastaurin 0.04 | alvocidib -0.004 | Tubastatin A 0.009 | [1] -0.005 | defactinib -0.052 | rucaparib 0.017 | [2] -0.031 | encorafenib 0.033 | [3] -0.096 | [6] 0.057 | filanesib -0.038 | zotarolimus 0.01 | idasanutlin -0.019 | alisertib -0.055 | [4] 0.03 | gefitinib 0.009 | [5] 0.01 | lapatinib -0.018 | pictilisib 0.129
